Tested on: N,N′-diacetyl-Lys-D-Ala-D-Ala
Assay: Isothermal titration calorimetry of tri-peptide binding, with/without HSA

## CN[C@H](CC(C)C)C(=O)N[C@H]1C(=O)N[C@@H](CC(N)=O)C(=O)N[C@H]2C(=O)N[C@H]3C(=O)N[C@H](C(=O)N[C@H](C(=O)O)c4cc(O)cc(O)c4-c4cc3ccc4O)[C@H](O)c3ccc(c(Cl)c3)Oc3cc2cc(c3O[C@@H]2O[C@H](CO)[C@@H](O)[C@H](O)[C@H]2O[C@H]2C[C@](C)(N)[C@H](O)[C@H](C)O2)Oc2ccc(cc2Cl)[C@H]1O [Vancomycin, vancomycin, reference compound]
T 10 °C, [HSA] 0 μM
  ΔH: -9.49 kcal/mol
  ΔS: −6.80 eu
T 25 °C, with HSA 513 μM
  ΔH: -10.09 kcal/mol
  ΔS: −8.80 eu

— patent US20170190744A1 (Vicuron Pharmaceuticals, Inc., priority 2015, published 2017)
